# Test results as given in the supplement of paper PMC10849652.
# Protein sequences, listed by entry. Tags and fused reporters are not part of them. Lines headed by an entry give the natural chain unless they say otherwise; changes in a name come on top.
# UniProt P51809, whole entry, looked up: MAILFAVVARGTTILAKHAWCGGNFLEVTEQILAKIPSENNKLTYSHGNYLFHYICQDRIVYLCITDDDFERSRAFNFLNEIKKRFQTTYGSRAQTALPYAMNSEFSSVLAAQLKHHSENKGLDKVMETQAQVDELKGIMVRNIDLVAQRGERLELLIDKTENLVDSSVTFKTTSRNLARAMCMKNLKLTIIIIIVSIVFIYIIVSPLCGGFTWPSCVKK
# UniProt Q9BZM6: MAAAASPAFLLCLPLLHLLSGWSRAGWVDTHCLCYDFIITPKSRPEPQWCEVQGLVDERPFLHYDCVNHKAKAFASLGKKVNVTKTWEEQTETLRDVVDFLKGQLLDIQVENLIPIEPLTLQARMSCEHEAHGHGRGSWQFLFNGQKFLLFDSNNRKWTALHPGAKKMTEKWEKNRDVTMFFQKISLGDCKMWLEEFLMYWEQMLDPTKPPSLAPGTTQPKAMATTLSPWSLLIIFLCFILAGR
# UniProt O94966: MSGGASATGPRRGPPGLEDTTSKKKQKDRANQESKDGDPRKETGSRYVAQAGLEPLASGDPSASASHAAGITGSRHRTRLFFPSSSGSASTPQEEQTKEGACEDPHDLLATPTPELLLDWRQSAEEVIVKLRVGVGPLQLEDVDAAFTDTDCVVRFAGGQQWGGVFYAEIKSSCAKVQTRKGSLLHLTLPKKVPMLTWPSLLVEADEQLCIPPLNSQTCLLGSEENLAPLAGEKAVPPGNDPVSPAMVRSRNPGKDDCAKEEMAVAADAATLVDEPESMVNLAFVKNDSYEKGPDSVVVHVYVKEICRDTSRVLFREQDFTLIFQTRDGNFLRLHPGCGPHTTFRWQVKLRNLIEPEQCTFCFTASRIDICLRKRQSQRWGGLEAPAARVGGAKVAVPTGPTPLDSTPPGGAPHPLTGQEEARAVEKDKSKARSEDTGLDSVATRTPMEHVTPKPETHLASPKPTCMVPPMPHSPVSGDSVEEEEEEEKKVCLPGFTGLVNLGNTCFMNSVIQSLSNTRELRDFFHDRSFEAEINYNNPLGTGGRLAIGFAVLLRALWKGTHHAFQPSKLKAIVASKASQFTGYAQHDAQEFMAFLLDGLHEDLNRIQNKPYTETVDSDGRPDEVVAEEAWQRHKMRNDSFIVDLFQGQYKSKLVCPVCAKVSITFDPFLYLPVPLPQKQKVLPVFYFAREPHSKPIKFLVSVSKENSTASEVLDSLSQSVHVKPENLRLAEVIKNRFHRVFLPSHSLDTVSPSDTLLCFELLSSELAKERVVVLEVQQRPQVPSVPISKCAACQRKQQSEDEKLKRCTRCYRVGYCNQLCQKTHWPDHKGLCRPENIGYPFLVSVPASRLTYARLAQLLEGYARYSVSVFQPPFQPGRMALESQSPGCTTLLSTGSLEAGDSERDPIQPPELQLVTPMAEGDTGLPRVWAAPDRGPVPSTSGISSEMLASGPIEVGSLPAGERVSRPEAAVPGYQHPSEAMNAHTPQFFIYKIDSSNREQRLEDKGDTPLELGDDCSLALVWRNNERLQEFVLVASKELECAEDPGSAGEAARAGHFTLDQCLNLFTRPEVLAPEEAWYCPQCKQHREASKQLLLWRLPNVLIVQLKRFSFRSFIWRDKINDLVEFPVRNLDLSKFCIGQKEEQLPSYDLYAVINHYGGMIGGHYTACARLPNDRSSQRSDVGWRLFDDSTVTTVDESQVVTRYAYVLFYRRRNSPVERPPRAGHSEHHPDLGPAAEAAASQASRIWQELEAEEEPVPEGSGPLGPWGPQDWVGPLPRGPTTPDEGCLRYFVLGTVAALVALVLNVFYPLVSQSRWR
# UniProt Q9NVA1: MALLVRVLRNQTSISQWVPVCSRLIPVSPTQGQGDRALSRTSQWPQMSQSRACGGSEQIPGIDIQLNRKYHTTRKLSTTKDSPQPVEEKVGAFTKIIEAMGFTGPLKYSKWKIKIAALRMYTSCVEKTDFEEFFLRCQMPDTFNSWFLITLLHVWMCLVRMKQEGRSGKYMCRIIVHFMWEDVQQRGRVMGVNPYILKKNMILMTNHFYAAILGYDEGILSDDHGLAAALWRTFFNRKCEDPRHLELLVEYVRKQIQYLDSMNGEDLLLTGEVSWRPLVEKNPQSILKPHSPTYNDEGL
# UniProt Q8IZJ1, whole entry, looked up: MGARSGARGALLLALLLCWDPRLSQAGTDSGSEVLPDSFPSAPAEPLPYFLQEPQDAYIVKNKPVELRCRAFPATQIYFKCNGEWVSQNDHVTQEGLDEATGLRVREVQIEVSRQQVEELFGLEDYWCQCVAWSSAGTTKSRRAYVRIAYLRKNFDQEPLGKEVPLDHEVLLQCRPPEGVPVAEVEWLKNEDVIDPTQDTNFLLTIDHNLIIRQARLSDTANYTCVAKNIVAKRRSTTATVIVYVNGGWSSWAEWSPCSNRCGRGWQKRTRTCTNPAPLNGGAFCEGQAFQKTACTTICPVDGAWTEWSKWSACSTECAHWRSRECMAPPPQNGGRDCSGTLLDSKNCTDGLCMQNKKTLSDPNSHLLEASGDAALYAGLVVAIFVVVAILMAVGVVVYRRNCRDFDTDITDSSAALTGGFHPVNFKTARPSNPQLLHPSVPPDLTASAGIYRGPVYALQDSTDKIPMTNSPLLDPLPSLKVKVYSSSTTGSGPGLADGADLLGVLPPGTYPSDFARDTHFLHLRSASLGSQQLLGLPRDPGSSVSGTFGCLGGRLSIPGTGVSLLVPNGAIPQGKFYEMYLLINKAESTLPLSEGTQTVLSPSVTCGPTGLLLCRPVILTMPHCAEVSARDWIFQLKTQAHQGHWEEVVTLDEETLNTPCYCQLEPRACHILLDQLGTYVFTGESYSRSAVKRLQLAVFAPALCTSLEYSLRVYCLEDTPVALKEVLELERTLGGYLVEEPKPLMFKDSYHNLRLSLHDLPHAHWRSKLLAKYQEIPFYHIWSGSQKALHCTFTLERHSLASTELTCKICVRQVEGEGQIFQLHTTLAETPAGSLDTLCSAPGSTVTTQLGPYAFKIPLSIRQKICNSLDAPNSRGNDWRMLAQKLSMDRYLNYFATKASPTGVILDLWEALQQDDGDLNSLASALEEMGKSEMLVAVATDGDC
# UniProt Q6BDS2: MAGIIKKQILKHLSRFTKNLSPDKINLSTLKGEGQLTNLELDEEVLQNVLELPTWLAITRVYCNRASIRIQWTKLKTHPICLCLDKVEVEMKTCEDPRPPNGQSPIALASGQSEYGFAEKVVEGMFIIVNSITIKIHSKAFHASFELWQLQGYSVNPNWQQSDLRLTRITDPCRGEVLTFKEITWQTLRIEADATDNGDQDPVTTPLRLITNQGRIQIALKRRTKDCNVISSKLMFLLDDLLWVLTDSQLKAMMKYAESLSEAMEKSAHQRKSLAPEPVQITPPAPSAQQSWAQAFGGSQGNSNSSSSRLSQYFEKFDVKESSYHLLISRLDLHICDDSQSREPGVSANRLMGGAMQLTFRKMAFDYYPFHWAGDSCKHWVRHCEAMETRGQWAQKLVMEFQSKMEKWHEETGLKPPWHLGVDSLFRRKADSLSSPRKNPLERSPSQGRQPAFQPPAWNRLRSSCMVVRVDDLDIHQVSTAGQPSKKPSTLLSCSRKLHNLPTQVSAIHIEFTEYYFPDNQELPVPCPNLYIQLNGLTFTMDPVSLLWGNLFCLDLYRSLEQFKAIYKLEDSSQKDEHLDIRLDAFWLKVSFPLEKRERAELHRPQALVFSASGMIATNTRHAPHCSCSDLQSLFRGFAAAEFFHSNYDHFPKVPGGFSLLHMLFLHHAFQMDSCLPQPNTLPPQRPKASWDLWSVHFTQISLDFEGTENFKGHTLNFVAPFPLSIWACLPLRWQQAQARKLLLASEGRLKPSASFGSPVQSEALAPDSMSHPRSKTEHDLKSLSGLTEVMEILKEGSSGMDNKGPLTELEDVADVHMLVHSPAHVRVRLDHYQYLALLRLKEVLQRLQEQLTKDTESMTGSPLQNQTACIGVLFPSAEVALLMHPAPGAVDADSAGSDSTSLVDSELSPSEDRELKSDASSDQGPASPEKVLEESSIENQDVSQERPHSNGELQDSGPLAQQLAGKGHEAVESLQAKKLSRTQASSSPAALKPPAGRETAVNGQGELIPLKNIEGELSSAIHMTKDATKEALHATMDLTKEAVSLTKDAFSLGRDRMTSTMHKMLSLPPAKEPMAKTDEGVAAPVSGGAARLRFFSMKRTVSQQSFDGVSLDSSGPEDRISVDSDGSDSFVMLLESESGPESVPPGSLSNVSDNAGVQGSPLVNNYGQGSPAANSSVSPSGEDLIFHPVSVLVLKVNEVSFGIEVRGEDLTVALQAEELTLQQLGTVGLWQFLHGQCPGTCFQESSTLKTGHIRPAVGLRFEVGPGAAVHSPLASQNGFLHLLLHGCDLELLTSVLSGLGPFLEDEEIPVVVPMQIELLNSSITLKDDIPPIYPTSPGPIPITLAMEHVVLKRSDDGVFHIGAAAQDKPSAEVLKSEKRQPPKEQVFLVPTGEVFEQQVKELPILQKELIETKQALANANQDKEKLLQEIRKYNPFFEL
# UniProt O60763: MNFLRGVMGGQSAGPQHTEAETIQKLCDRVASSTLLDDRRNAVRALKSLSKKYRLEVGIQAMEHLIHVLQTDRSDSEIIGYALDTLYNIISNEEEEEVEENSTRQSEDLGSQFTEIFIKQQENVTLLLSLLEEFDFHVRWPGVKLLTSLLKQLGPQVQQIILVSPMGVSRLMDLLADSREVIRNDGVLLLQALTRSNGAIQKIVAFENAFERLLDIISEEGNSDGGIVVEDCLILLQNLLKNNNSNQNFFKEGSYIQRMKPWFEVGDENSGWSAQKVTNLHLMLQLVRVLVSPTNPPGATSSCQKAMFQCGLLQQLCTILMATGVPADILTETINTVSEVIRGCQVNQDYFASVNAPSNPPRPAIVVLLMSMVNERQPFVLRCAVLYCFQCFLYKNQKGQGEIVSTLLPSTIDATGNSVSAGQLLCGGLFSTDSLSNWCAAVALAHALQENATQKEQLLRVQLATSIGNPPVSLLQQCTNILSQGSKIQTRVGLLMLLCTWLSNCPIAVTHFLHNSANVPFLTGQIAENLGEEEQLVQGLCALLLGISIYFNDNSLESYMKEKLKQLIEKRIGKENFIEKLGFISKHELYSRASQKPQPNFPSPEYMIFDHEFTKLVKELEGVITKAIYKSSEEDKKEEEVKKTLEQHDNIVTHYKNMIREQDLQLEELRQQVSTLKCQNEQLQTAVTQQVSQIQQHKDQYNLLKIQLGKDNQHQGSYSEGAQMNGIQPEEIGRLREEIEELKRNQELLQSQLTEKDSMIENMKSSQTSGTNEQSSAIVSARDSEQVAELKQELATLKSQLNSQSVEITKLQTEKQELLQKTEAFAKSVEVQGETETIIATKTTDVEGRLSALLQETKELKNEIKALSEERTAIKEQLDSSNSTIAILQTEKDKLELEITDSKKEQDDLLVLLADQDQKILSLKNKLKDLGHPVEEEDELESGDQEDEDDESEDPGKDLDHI
# UniProt Q9UBK9, whole entry, looked up: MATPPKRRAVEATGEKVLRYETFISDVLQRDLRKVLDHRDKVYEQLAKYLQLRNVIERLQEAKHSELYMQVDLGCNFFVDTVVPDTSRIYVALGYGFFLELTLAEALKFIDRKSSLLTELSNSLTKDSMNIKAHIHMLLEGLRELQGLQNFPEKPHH
# UniProt Q96RL1: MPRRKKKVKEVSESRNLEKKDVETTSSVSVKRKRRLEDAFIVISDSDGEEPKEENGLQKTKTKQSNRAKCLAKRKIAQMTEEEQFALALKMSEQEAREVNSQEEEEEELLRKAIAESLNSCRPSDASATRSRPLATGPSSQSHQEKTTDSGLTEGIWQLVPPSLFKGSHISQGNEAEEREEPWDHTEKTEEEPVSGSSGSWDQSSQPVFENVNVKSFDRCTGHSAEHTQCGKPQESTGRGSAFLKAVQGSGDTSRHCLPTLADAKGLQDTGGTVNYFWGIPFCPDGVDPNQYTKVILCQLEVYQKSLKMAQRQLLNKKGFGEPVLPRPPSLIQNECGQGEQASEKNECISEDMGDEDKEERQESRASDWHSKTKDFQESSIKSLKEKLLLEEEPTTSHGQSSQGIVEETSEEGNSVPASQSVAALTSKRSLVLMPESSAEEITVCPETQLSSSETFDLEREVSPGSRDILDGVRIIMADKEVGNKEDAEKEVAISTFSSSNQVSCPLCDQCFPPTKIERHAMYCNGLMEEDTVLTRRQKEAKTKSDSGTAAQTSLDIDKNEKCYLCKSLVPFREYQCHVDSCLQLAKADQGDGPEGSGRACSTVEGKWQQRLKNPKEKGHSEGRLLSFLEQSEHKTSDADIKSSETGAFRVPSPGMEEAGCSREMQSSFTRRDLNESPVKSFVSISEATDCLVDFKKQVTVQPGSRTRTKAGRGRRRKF
# The list shows a part of the results.
# How the values were obtained:
# Assay in all cases: log2 fold change, soluble protein after heating vs DMSO (PISA); higher = thermal stabilisation; K562 lysate, 10 uM; active = over 0.2 and 3.5 SD of the protein, either way, in both replicates (recomputed)
# vemurafenib = compound: CCCS(=O)(=O)Nc1ccc(F)c(C(=O)c2c[nH]c3ncc(-c4ccc(Cl)cc4)cc23)c1F [vemurafenib]
# Procedure, shortened: (§1)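 A 30 min treatment with 10 μM compound was applied to crude K562 extract at 1 mg/mL protein in PBS pH 7.4 with 1 mM MgCl2. Heating for 3 min spanned 48°C-58°C, after which aliquots were pooled, adjusted to 0.5% NP-40 at 4°C and spun at 21,000xg for 90 min. TMTpro 16plex LC-MS/MS of the supernatant, with channel sums equalised, gave values recorded as log-two fold change in thermal stability against solvent controls, from duplicates.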
# [1] = compound: CCCS(=O)(=O)Nc1ccc(F)c(C(=O)c2c[nH]c3ncc(Cl)cc23)c1F
# Procedure, shortened: as §1
# barasertib = compound: CCN(CCCOc1ccc2c(Nc3cc(CC(=O)Nc4cccc(F)c4)[nH]n3)ncnc2c1)CCOP(=O)(O)O [barasertib]
# Procedure, shortened: as §1
# [2] = compound: CC[C@@H]1C(=O)N(C)c2cnc(Nc3ccc(C(=O)NC4CCN(C)CC4)cc3OC)nc2N1C1CCCC1
# Procedure, shortened: as §1
# volasertib = compound: CC[C@@H]1C(=O)N(C)c2cnc(Nc3ccc(C(=O)N[C@H]4CC[C@H](N5CCN(CC6CC6)CC5)CC4)cc3OC)nc2N1C(C)C [volasertib]
# Procedure, shortened: as §1
# [3] = compound: CCn1c(C(=O)N(C2CC2)C2CC2)cc2c3c(ncn3C)c(Nc3cc(C)n(C)n3)nc21
# Procedure, shortened: as §1
# [4] = compound: CCn1cc(-c2ccnc3[nH]c(-c4cccc(CN(C)C)c4)cc23)c(-c2ccc(NC(=O)N(C)C)cc2)n1
# Procedure, shortened: as §1
# [5] = compound: CN1CCC(CNc2ccc3ncc(-c4cccc(OC(F)(F)F)c4)n3n2)CC1
# Procedure, shortened: as §1
# saracatinib = compound: CN1CCN(CCOc2cc(OC3CCOCC3)c3c(Nc4c(Cl)ccc5c4OCO5)ncnc3c2)CC1 [saracatinib]
# Procedure, shortened: as §1
# sotrastaurin = compound: CN1CCN(c2nc(C3=C(c4c[nH]c5ccccc45)C(=O)NC3=O)c3ccccc3n2)CC1 [sotrastaurin]
# Procedure, shortened: as §1
# alvocidib = compound: CN1CC[C@H](c2c(O)cc(O)c3c(=O)cc(-c4ccccc4Cl)oc23)[C@H](O)C1 [alvocidib]
# Procedure, shortened: as §1
# Tubastatin A = compound: CN1CCc2c(c3ccccc3n2Cc2ccc(C(=O)NO)cc2)C1 [Tubastatin A]
# Procedure, shortened: as §1
# [6] = compound: CNC(=O)C1=CC=CC=C1NC2=NC(=NC=C2Cl)NC3=C(C=C(C=C3)N4CCOCC4)OC
# Procedure, shortened: as §1
# defactinib = compound: CNC(=O)c1ccc(Nc2ncc(C(F)(F)F)c(NCc3nccnc3N(C)S(C)(=O)=O)n2)cc1 [defactinib]
# Procedure, shortened: as §1
# [7] = compound: CNc1nc(-c2ccc3c(N)n[nH]c3c2)cc(N2C[C@@H](C(=O)NC3CCCCC3)CC[C@H]2C)n1
# Procedure, shortened: as §1
# encorafenib = compound: COC(=O)N[C@@H](C)CNc1nccc(-c2cn(C(C)C)nc2-c2cc(Cl)cc(NS(C)(=O)=O)c2F)n1 [encorafenib]
# Procedure, shortened: as §1
# [8] = compound: COC(=O)[C@H](CCSC)NC(=O)C1=C(C=C(C=C1)NC[C@H](CS)N)C2=CC=CC=C2
# Procedure, shortened: as §1
# alisertib = compound: COc1cc(Nc2ncc3c(n2)-c2ccc(Cl)cc2C(c2c(F)cccc2OC)=NC3)ccc1C(=O)O [alisertib]
# Procedure, shortened: as §1
# [9] = compound: COc1cc2nc(-c3cc(F)ccc3O)nc(N[C@@H]3CNC[C@H]3C(C)(C)O)c2cc1OC
# Procedure, shortened: as §1
# gefitinib = compound: COc1cc2ncnc(Nc3ccc(F)c(Cl)c3)c2cc1OCCCN1CCOCC1 [gefitinib]
# Procedure, shortened: as §1
Target,log2 fold change (vemurafenib),log2 fold change [1],log2 fold change (barasertib),log2 fold change [2],log2 fold change (volasertib),log2 fold change [3],log2 fold change [4],log2 fold change [5],log2 fold change (saracatinib),log2 fold change (sotrastaurin),log2 fold change (alvocidib),log2 fold change (Tubastatin A),log2 fold change [6],log2 fold change (defactinib),log2 fold change [7],log2 fold change (encorafenib),log2 fold change [8],log2 fold change (alisertib),log2 fold change [9],log2 fold change (gefitinib)
USP39 (UniProt Q53GS9),inactive: 0.017,inactive: 0.017,inactive: -0.005,inactive: -0.024,inactive: 0.004,inactive: 0.01,inactive: -0.011,inactive: -0.049,inactive: 0.004,inactive: -0.012,inactive: -0.012,inactive: -0.012,inactive: -0.019,inactive: -0.021,inactive: -0.03,inactive: 0.008,inactive: -0.09,inactive: 0.009,inactive: -0.02,inactive: 0.016
VAMP7 (UniProt P51809),inactive: 0.023,inactive: 0.01,inactive: 0.004,inactive: -0.004,inactive: -0.02,inactive: -0.037,inactive: -0.025,inactive: 0.054,inactive: -0.031,inactive: 0.028,inactive: -0.042,inactive: 0.047,inactive: -0.028,inactive: 0,inactive: -0.065,inactive: -0.007,inactive: -0.072,inactive: -0.024,inactive: 0.024,inactive: 0.003
ULBP1 (UniProt Q9BZM6),inactive: 0.022,inactive: 0.042,inactive: -0.009,inactive: 0.063,inactive: -0.027,inactive: -0.049,inactive: -0.002,inactive: 0.026,inactive: -0.011,inactive: -0.054,inactive: -0.045,inactive: 0.004,inactive: 0.04,inactive: -0.052,inactive: 0.088,inactive: 0.033,inactive: -0.02,inactive: 0.049,inactive: 0.012,inactive: -0.046
UGT8 (UniProt Q16880),inactive: -0.028,inactive: 0.093,inactive: 0.098,inactive: -0.07,inactive: 0.067,inactive: -0.066,inactive: 0.011,inactive: -0.03,inactive: 0.01,inactive: 0.013,inactive: -0.005,inactive: 0.015,inactive: 0.02,inactive: 0.177,inactive: -0.047,inactive: 0.044,inactive: 0.009,inactive: 0.064,inactive: 0.049,inactive: -0.029
UNK (UniProt Q9C0B0),inactive: -0.052,inactive: 0.012,inactive: -0.007,inactive: -0.001,inactive: -0.018,inactive: -0.137,inactive: -0.072,inactive: 0.036,inactive: 0,inactive: -0.009,inactive: -0.096,inactive: 0.047,inactive: 0.008,inactive: -0.007,inactive: -0.014,inactive: 0.004,inactive: -0.04,inactive: 0,inactive: 0.004,inactive: -0.011
USP19 isoform 6 (UniProt O94966),inactive: 0.028,inactive: 0.028,inactive: 0.023,inactive: 0.025,inactive: -0.028,inactive: -0.011,inactive: -0.017,inactive: 0,inactive: 0.003,inactive: -0.006,inactive: 0.006,inactive: -0.014,inactive: -0.005,inactive: -0.013,inactive: -0.025,inactive: 0.02,inactive: 0.032,inactive: 0.003,inactive: 0.021,inactive: -0.005
UQCC1 (UniProt Q9NVA1),inactive: -0.05,inactive: 0.008,inactive: 0.023,inactive: 0.01,inactive: 0.03,inactive: 0.026,inactive: 0,inactive: 0.034,inactive: -0.006,inactive: -0.006,inactive: -0.018,inactive: 0.02,inactive: -0.012,inactive: 0.036,inactive: -0.052,inactive: -0.007,inactive: 0.071,inactive: -0.054,inactive: -0.017,inactive: -0.011
UNC5B (UniProt Q8IZJ1),inactive: 0.101,inactive: 0.082,inactive: 0.067,inactive: 0.042,inactive: -0.288,inactive: -0.031,inactive: 0.217,inactive: -0.141,inactive: 0.046,inactive: 0.023,inactive: 0.036,inactive: 0.005,inactive: 0,inactive: -0.01,inactive: -0.013,inactive: 0.045,inactive: -0.023,inactive: 0.06,inactive: -0.068,inactive: -0.103
UHRF1BP1 (UniProt Q6BDS2),inactive: 0.027,inactive: 0,inactive: 0.048,inactive: 0.105,inactive: -0.042,inactive: -0.044,inactive: -0.079,inactive: 0.02,inactive: 0.019,inactive: -0.014,inactive: -0.067,inactive: -0.009,inactive: 0,inactive: 0.008,inactive: 0.018,inactive: 0.112,inactive: -0.159,inactive: 0.019,inactive: 0.05,inactive: -0.002
UTP18 (UniProt Q9Y5J1),inactive: -0.011,inactive: 0.067,inactive: -0.036,inactive: 0.057,inactive: -0.069,inactive: 0.024,inactive: -0.004,inactive: -0.042,inactive: 0.031,inactive: 0.012,inactive: 0.009,inactive: -0.05,inactive: 0.075,inactive: -0.086,inactive: -0.049,inactive: -0.028,inactive: 0.006,inactive: -0.032,inactive: -0.05,inactive: -0.046
USO1 (UniProt O60763),inactive: 0.119,inactive: 0.096,inactive: 0.003,inactive: 0.108,inactive: -0.019,inactive: -0.152,inactive: -0.052,inactive: 0.117,inactive: 0.023,inactive: -0.021,inactive: 0.019,inactive: 0.103,inactive: 0.087,inactive: -0.028,inactive: 0.203,inactive: -0.144,inactive: -0.125,inactive: 0.035,inactive: -0.095,inactive: -0.153
UXT isoform 2 (UniProt Q9UBK9),inactive: -0.023,inactive: 0,inactive: 0.056,active: 0.321,inactive: -0.004,inactive: -0.088,inactive: -0.05,inactive: 0.032,inactive: 0.053,inactive: 0.001,inactive: -0.038,inactive: 0.081,inactive: 0.015,inactive: 0.069,active: 0.574,inactive: -0.081,inactive: 0.025,inactive: -0.041,inactive: 0.038,inactive: 0.04
VAV3 isoform 4 (UniProt Q9UKW4),inactive: 0.059,inactive: -0.004,inactive: 0.049,inactive: -0.001,inactive: -0.017,inactive: -0.291,inactive: -0.512,inactive: 0.177,inactive: -0.15,inactive: 0.001,inactive: -0.305,inactive: -0.202,inactive: 0.032,inactive: -0.295,inactive: 0.053,inactive: 0,inactive: 0.049,inactive: -0.004,inactive: 0.054,inactive: 0.036
URI1 (UniProt O94763),inactive: 0.051,inactive: 0.015,inactive: -0.005,inactive: 0.048,inactive: 0.002,inactive: 0.018,inactive: 0.061,inactive: 0,inactive: 0.022,inactive: -0.007,inactive: -0.017,inactive: -0.006,inactive: 0.051,inactive: -0.089,inactive: -0.006,inactive: 0.061,inactive: 0.011,inactive: 0.025,inactive: 0.002,inactive: 0.007
UIMC1 (UniProt Q96RL1),inactive: 0.027,inactive: 0.011,inactive: -0.049,inactive: 0.033,inactive: 0.047,inactive: 0.001,inactive: 0.144,inactive: -0.02,inactive: -0.003,inactive: 0.007,inactive: -0.032,inactive: -0.018,inactive: 0.005,inactive: -0.034,inactive: 0.007,inactive: 0.003,inactive: -0.046,inactive: 0.044,inactive: 0.053,inactive: 0.036

# 2 records drawn at random from those above, as already listed:
Target,log2 fold change (vemurafenib),log2 fold change [1],log2 fold change (barasertib),log2 fold change [2],log2 fold change (volasertib),log2 fold change [3],log2 fold change [4],log2 fold change [5],log2 fold change (saracatinib),log2 fold change (sotrastaurin),log2 fold change (alvocidib),log2 fold change (Tubastatin A),log2 fold change [6],log2 fold change (defactinib),log2 fold change [7],log2 fold change (encorafenib),log2 fold change [8],log2 fold change (alisertib),log2 fold change [9],log2 fold change (gefitinib)
UHRF1BP1 (UniProt Q6BDS2),inactive: 0.027,inactive: 0,inactive: 0.048,inactive: 0.105,inactive: -0.042,inactive: -0.044,inactive: -0.079,inactive: 0.02,inactive: 0.019,inactive: -0.014,inactive: -0.067,inactive: -0.009,inactive: 0,inactive: 0.008,inactive: 0.018,inactive: 0.112,inactive: -0.159,inactive: 0.019,inactive: 0.05,inactive: -0.002
UIMC1 (UniProt Q96RL1),inactive: 0.027,inactive: 0.011,inactive: -0.049,inactive: 0.033,inactive: 0.047,inactive: 0.001,inactive: 0.144,inactive: -0.02,inactive: -0.003,inactive: 0.007,inactive: -0.032,inactive: -0.018,inactive: 0.005,inactive: -0.034,inactive: 0.007,inactive: 0.003,inactive: -0.046,inactive: 0.044,inactive: 0.053,inactive: 0.036
